# PubChem BioAssay AID493014 (National Center for Advancing Translational Sciences (NCATS), 2011)
# Among all 340,000 compounds or so, about 170 (0.05%) were called active. This list was built around the results that the source calls inconclusive (neither active nor inactive); the mix of calls is not that of the screen. The call rests on the fitted dose curve; in most records, active means well fitted inhibition curve with a large enough effect in the signal ratio, with a control signal flat (not every such curve was filed as active); inconclusive means small, poorly fitted or top-dose-only effect, or effect the other way, or a change in a side signal; inactive means flat fitted curve, though single readings scatter; the % refers to the signal ratio. Potencies of inconclusive entries are doubtful fits and often do not repeat.
# Assay: qHTS Assay to Find Inhibitors of Chronic Active B-Cell Receptor Signaling;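 on activity change, negative = inhibition: plate controls were basal doxycycline-induced cells for no effect and cells given 10 µM MG132 for full effect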
# Conditions: ABC-DLBCL IkBa-CBG/CBR reporter, luminescence ratio (green luciferase fused to IkBa over red control in TMD8 lymphoma cells), 4 h; activity change, negative = inhibition: at 46.1 µM (top of the series)
# How it was run: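 Compounds up to 46 uM were incubated four hours with TMD8 cells whose green CBG68 luciferase is fused to IkappaBalpha; red CBR luminescence normalised the signal, and concentration-effect curves were fitted to fusion, red and ratio data.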
# Potency means the concentration at half of the fitted maximal effect.
SMILES,"activity change, negative = inhibition",Potency
NS(=O)(=O)c1ccc(NC(=O)c2ccc3c(c2)OCO3)cc1,inconclusive: -13%,–
CCN(CCCNC(=O)CNC(=O)Cn1cnc2ccccc2c1=O)c1ccccc1,inconclusive: -2.23%,–
CCCCNC(=O)NC1(C(F)(F)F)Oc2ccccc2O1,–,"inconclusive: 18.4 µM [falling, single point]"
O=C(Nc1cccc2c1CCCC2)c1ccccc1F,inactive: 1.33%,–
CCc1ccc(Nc2nnc(SCC(=O)N(C)CC(=O)Nc3ccccc3CC)s2)cc1,–,"inconclusive: 20.6 µM [falling, partial curve, poor fit]"
O=C(Nc1nc2ccc(Cl)cc2s1)[C@@H]1CCCN1C(=O)c1cccs1,inconclusive: 18.8%,–
Cc1cc(-c2nnc(SCC(=O)N3C(C)CCCC3C)o2)no1 (centres undefined),inactive: 0.072%,–
O=C(NCC1CCCO1)c1cc(-c2ccccc2F)no1 (centres undefined),–,"inconclusive: 17.8 µM [falling, partial curve]"
CCOC(=O)CSc1c(-c2cccs2)[nH]c2ccccc12,–,"inconclusive: 29.1 µM [falling, partial curve, poor fit]"
Brc1ccc2[nH]c3nc(SCCN4CCOCC4)nnc3c2c1,inactive: 7.43%,–
CCCCCCCNC1=CC(=O)CC(c2ccccc2)C1 (centres undefined),inactive: -8.8%,–
CCC1CCCCN1C(=O)COC(=O)c1cc2ccccc2cc1O (centres undefined),inconclusive: -19.8%,–
Cc1ccccc1-c1noc(C23CC4CC(CC(C4)C2)C3)n1,inactive: 12.7%,–
CC(C)C[C@H](NC(=O)c1nc[nH]c1C(=O)NCc1ccc(CNC(=O)OC(C)(C)C)cc1)C(=O)OC(C)(C)C,–,"inconclusive: 15.8 µM [rising, partial curve, poor fit]"
COc1cc(OC)cc(-c2cc3ccc(F)cc3cn2)c1,inconclusive: -13%,–
Cc1cc2c3nonc3ccc2n1-c1ccccc1,inconclusive: -3.43%,–
COCCN=C1NN=C(c2cc(C)n(CC3CCCO3)c2C)CS1 (centres undefined),inactive: 0.47%,–
CN(CCn1ccnc1)Cc1cn(Cc2ccccc2)nc1-c1ccc2c(c1)OCO2,inactive: -0.333%,–
COc1ccc(OC)c(NC(=O)CSC2=C(C#N)C(c3ccco3)C3=C(CCCC3=O)N2)c1 (centres undefined),inconclusive: -7.46%,–
O=C(COC(=O)Cc1n[nH]c(=O)c2ccccc12)Nc1ccc(Cl)cn1,inconclusive: -13.5%,–
COc1ccc(Br)cc1C(=O)CCC(=O)OCC(=O)Nc1cc(C(N)=O)cc(C(N)=O)c1,inactive: -2.69%,–
C=C(C)C(COc1c2occc2cc2ccc(=O)oc12)OC(C)(C)C(O)COc1c2occc2cc2ccc(=O)oc12 (centres undefined),inactive: -0.156%,–
Cc1c(NC(=O)c2cccc(F)c2)c(=O)n(-c2ccccc2)n1C,inactive: 6.28%,–
COC(=O)c1c(NC(=O)/C=C/C(=O)O)sc(Cc2ccccc2)c1C,inconclusive: 10.2%,–
CC(C)Sc1nc(N2CCOCC2)c2c(c1C#N)CC(C)(C)SC2,inconclusive: 2.7%,–
O=c1[nH][nH]cc1C=Nc1ccc(Cl)cc1,inactive: 0.517%,–
COc1ccc([N+](=O)[O-])cc1C1NN=C(c2cccc3ccccc23)S1 (centres undefined),inconclusive: 11.3%,–

SMILES,"activity change, negative = inhibition",Potency
COCCn1c(SCc2cccc([N+](=O)[O-])c2)nc2ccccc2c1=O,inactive: 1.39%,–
CCOc1ccccc1NC(=O)c1ccc2nc[nH]c2c1,–,"inconclusive: 12.6 µM [falling, partial curve]"
O=C(NC(=S)NN1CCOCC1)c1cc(Br)ccc1Cl,–,"inconclusive: 8.2 µM [falling, partial curve, poor fit]"
O=C(NCCc1ccccc1)C1CC1,inconclusive: 6.78%,–
CCOC(=O)c1c(C)n(C)c2ccc(OC)c(NC(=O)CN3CCC4(CC3)OCCO4)c12,inconclusive: -15.4%,–
Cn1c(-[n+]2c(-c3ccccc3)cc(-c3ccccc3)cc2-c2ccccc2)nc2cc([N+](=O)[O-])ccc21,inactive: 26.7%,–
Cc1noc(C)c1C(=O)OCC(=O)N(C)C1CCS(=O)(=O)C1 (centres undefined),–,"inconclusive: 22.4 µM [falling, partial curve]"
Cc1oc(-c2cccc(Br)c2)[n+]([O-])c1C,–,"inconclusive: 35.5 µM [falling, single point]"
COc1ccc(N/N=C(/C)c2cnnc(-c3ccccc3)n2)cc1,inconclusive: 2.53%,–
N#CCc1ccc(NC(=O)Nc2cccc3ccccc23)cc1,–,"inconclusive: 12.6 µM [falling, partial curve]"
C/C(CC(=O)Nc1ccc(Cl)c(C(F)(F)F)c1)=N\NC(=O)c1cccc(O)c1,–,"inconclusive: 0.517 µM [falling, full curve, poor fit]"
COc1cccc(Cn2cnc3c(NS(=O)(=O)c4cccc(Cl)c4Cl)c(C)c(C)cc32)c1,inactive: 0.185%,–
COc1cc2c(cc1OC)CN(C(=O)c1ccc(Br)o1)CC2,–,"inconclusive: 20 µM [falling, partial curve, poor fit]"
Cc1cccc(-n2ncc3c(N)ncnc32)c1,–,"inconclusive: 12.6 µM [falling, single point]"
CCOc1ccc(S(=O)(=O)N2CCCCC2)cc1NC(=O)C1CSC2(C)CCC(=O)N12 (centres undefined),inconclusive: 4.13%,–
COc1cc(/C=N/NC(=O)Nc2ccccc2)ccc1OCCOc1ccccc1C,inconclusive: 17.1%,–
COc1ccccc1-n1ccnc(SCC(=O)NCc2ccccc2)c1=O,–,"inconclusive: 20.6 µM [falling, partial curve, poor fit]"
CCOC(=O)c1c(-c2ccco2)csc1N,–,"inconclusive: 35.5 µM [falling, partial curve, poor fit]"
CN(C)S(=O)(=O)c1ccc(C(=O)OCC(=O)Nc2cccnc2Cl)cc1,inconclusive: 19%,–
Cc1ccc(SC(c2ccc(C)cc2)C(Cn2cncn2)C(=O)c2ccccc2)cc1 (centres undefined),–,"inconclusive: 2.31 µM [falling, single point]"
C=CCC[C@H](Cc1ccc(F)cc1)C(=O)OC[C@H](Cc1c[nH]c2ccccc12)NC(=O)[C@@H](CC=C)CC(=O)N(CCO)Cc1ccccc1,inconclusive: 1.31%,–
CC(=O)N1CCc2c(sc(NC(=O)CCS(=O)(=O)c3ccccc3)c2C(N)=O)C1,inactive: 1.13%,–
CC1(C)S[C@@H]2[C@H](NC(=O)C(C(=O)O)c3ccccc3)C(=O)N2[C@H]1C(=O)O (some centres undefined),inconclusive: 0.0656%,–
CCOC(=O)c1sc(NC(=O)c2ccc(C)s2)cc1C,–,"inconclusive: 15.8 µM [falling, partial curve, poor fit]"
CSc1nnc(-c2cc3c(s2)-c2ccccc2CC3)o1,inactive: -7.07%,–
CCn1c(SCC(=O)Nc2nc(-c3ccc(C)cc3)cs2)nnc1-c1ccccc1,inconclusive: 19%,–
O=C(CN1C(=O)NC2(CCCC2)C1=O)Nc1cccc(C(F)(F)F)c1,inconclusive: 0.918%,–

SMILES,"activity change, negative = inhibition",Potency
C=C(C)C(=O)N1CC2(CC(c3cccc(NC(=O)CC(c4ccccc4)c4ccccc4)c3)=NO2)C[C@H]1C(N)=O (some centres undefined),inactive: 0.509%,–
CC(=O)Oc1ccc(-c2nc(-c3cccnc3)no2)cc1,inconclusive: 5.53%,–
CCN=C1NN=C(c2c[nH]c3ccccc23)CS1,inactive: 0.653%,–
O=C(NCCCN1CCOCC1)C(=O)N/N=C/c1c(Cl)cccc1Cl,inactive: -0.593%,–
COc1cccc2sc(N3CCN(c4nc5ccccc5s4)CC3)nc12,inconclusive: 7.34%,–
Cc1ccc(C(C)C)c(OCC(=O)Nn2c(C)nc3ccccc3c2=O)c1,inconclusive: 30.4%,–
c1ccc(CN2CCC(Nc3nc(-c4ccccc4)nc4ccccc34)CC2)cc1,–,"inconclusive: 25.9 µM [falling, single point]"
CCSc1nnc(NC(=O)COc2cccc3ccccc23)s1,–,"inconclusive: 32.6 µM [falling, single point]"
COc1cccc(/C=C2\Oc3cc(OCC(=O)N4CCCCC4)ccc3C2=O)c1OC,–,"inconclusive: 28.2 µM [falling, single point]"
O=C(CCSc1ccccc1)Nc1ccccc1Br,–,"inconclusive: 17.8 µM [falling, partial curve]"
COc1ccc(NC(=O)CSC2=Nc3ccccc3C3=NC(CC(=O)NCc4ccco4)C(=O)N23)cc1 (centres undefined),inconclusive: -12.5%,–
CN(C)S(=O)(=O)c1ccc(C(=O)Nc2ccccn2)cc1,inactive: 12.2%,–
CC(=O)NCc1cc(Cl)c2cccnc2c1O,–,"inconclusive: 29.1 µM [falling, single point]"
CCN1C(=O)CC(N2CCN(c3ccc(C(=O)c4ccncc4)cc3)CC2)C1=O (centres undefined),–,"inconclusive: 1.64 µM [rising, partial curve, poor fit]"
CCNC(=S)NNC(=O)CSc1nc2ccccc2n1C,–,"inconclusive: 8.91 µM [falling, partial curve, poor fit]"
O=C1ON=C(c2ccccc2)/C1=C/c1ccc(O)c(O)c1,inactive: 11.8%,–
CC1CC(C)(C)NC(=S)N1CC(=O)NCc1ccc(Cl)cc1 (centres undefined),inconclusive: 0.423%,–
O=C(CN1c2cccc3cccc(c23)S1(=O)=O)N1CCN(c2ccccc2)CC1,inconclusive: -7.37%,–
Cc1ccc(C(=O)NC2CCCc3ccccc32)cc1[N+](=O)[O-] (centres undefined),inactive: -12.8%,–
CCOC(=O)c1ccc(-c2ccc(/C=C(\C#N)C(=O)NCC3CCCO3)o2)cc1 (centres undefined),inactive: 0.138%,–
CCCCNc1c(-c2ccc(-c3cccc(Cl)c3)cc2)nc2ccc(Cl)cn12,inconclusive: -0.0964%,–
COc1cc(/C=C/C(=O)OCC(=O)NC(=O)NC(C)C)cc(S(=O)(=O)N2CCc3ccccc32)c1OC,inactive: -7.29%,–
CCOC(=O)N1CCN(C(=O)c2cc3c(s2)-c2ccccc2OC3)CC1,inconclusive: -9.75%,–
O=C(O)CCCC(=O)OCCCCc1cccs1,inconclusive: -15.6%,–
CCOc1ccc2c(c1)C(N(CCN1CCOCC1)C(=O)Nc1ccc(OC)cc1OC)CC(C)(C)O2 (centres undefined),–,"inconclusive: 1.58 µM [falling, partial curve, poor fit]"

# Pulled by compound from above (3):
SMILES,"activity change, negative = inhibition",Potency
COc1cccc(Cn2cnc3c(NS(=O)(=O)c4cccc(Cl)c4Cl)c(C)c(C)cc32)c1,inactive: 0.185%,–
Cc1cccc(-n2ncc3c(N)ncnc32)c1,–,"inconclusive: 12.6 µM [falling, single point]"
COc1cc2c(cc1OC)CN(C(=O)c1ccc(Br)o1)CC2,–,"inconclusive: 20 µM [falling, partial curve, poor fit]"
